Measured values: PubChem BioAssay AID588764 (Broad Institute, 2011)
The inconclusive results got no clear call from the source; some entries with a clear call stand among them for comparison. Activity calls are given as the source filed them. The rule behind the calls is not given here.

Sequences of proteins named here, by UniProt entry; tags and fusion partners are left off.
UniProt Q5AAJ8, whole entry, looked up: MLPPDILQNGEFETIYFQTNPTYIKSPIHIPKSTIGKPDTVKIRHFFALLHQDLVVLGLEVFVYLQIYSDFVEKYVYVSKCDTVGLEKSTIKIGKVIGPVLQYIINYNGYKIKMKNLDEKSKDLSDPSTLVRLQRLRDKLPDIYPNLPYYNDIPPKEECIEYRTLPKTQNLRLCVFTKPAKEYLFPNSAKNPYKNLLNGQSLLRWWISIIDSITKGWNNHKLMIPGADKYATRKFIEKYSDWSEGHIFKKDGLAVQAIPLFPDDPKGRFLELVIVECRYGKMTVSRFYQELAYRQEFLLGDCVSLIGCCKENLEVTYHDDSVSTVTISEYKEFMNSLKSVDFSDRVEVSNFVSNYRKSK

These compounds were tested against Histone acetyltransferase RTT109 (Candida albicans (strain SC5314 / ATCC MYA-2876)) (UniProt Q5AAJ8) (assay: C. albicans Rtt109 HAT inhibition curves – biochemical, cherry-picked hits, plate reader, dose response (AID 588764;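 note: 0% = neutral control wells and -100% = no enzyme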)). Settings: Rtt109/Vps75 HAT activity; at 19.5 µM (top of the series).
For Cc1cccc(-n2c(SCC(N)=O)nc3c(c2=O)C2(CCCCC2)Cc2ccccc2-3)c1, the activity change, negative = inhibition was inactive: -4.41%.
With C#CCOCCOCCOCCNc1nc(N2CCN(C(=O)C([C@@H](C)O)n3cc([C@@H](N)CCCCN)nn3)CC2)nc(N2CCN(C(=O)C([C@@H](C)O)n3cc([C@@H](N)CCCCN)nn3)CC2)n1 (some centres not stated) the activity change, negative = inhibition was inactive: -1.47%.
With O=C(O)/C=C/C(=O)Nc1ccc(S(=O)(=O)N2CCCC2)cc1 the activity change, negative = inhibition was inconclusive: -11.8%.
With C[N+]1(CC(O)COc2ccccc2)CCN(C(=O)c2ccc([N+](=O)[O-])cc2)CC1 (configuration not stated) the activity change, negative = inhibition was inconclusive: -31.3%.
For O=C(c1cccnc1)N(c1cc2sc(=O)oc2c2ccccc12)S(=O)(=O)c1ccccc1, the activity change, negative = inhibition was inconclusive: -19.1%.
Cc1nc(CC(C)C)cc(C(=O)N2CCCC(CNS(=O)(=O)c3cccs3)C2)n1 (configuration not stated) was tested, and the activity change, negative = inhibition was inactive: 11.8%.
For CCCCCc1ccc(OCCOCCn2c[n+](C)c3ccccc32)c(CCCCC)c1, the activity change, negative = inhibition was inconclusive: -19.9%.
For CC(=O)N(CCC(Cc1ccccc1)c1ccco1)Cc1ccco1 (configuration not stated), the activity change, negative = inhibition was inconclusive: -23.5%.
O=C(NN1C(=O)/C(=C/C=C/c2ccco2)SC1=S)c1ccccc1O was tested, and the activity change, negative = inhibition was inconclusive: 90.9%.
C#CCOCCOCCOCCNc1nc(N2CCN(C(=O)C([C@@H](C)O)n3cc([C@@H](N)CCCCN)nn3)CC2)nc(N2CCN(C(=O)[C@H](CCCCN)n3cc([C@@H](N)CC(N)=O)nn3)CC2)n1 (some centres not stated) was tested, and the activity change, negative = inhibition was inconclusive: -11.8%.
With O=C(O)C(Cc1ccccc1)N1C(=O)/C(=C/c2ccccc2)SC1=S (configuration not stated) the activity change, negative = inhibition was inactive: 95.7%.
For Clc1nc(NCc2cccnc2)nc(N2CCOCC2)n1, the activity change, negative = inhibition was inactive: 4.41%.
In the case of COc1cccc(C(=O)Nc2ccc3c(c2)C(=O)c2ccccc2C3=O)c1, the activity change, negative = inhibition is reported as inconclusive: -23.5%.
For CCOc1ccc(N2C(=O)CSC2c2ccncc2)cc1 (configuration not stated), the activity change, negative = inhibition was inactive: -8.82%.
For CC(=O)OCCNc1cc(Sc2nc3ccccc3[nH]2)c2nonc2c1[N+](=O)[O-], the activity change, negative = inhibition was inconclusive: 26.5%.
For CCCn1cc(S(=O)(=O)CC(=O)NC2CCCCC2)c2ccccc21, the activity change, negative = inhibition was inactive: -2.94%.
For S=C1NC2(CCCCC2)Cc2ccccc21, the activity change, negative = inhibition was inconclusive: -12.5%.
COCC(=O)OCC(=O)Nc1cc(C)c(C)cc1[N+](=O)[O-] was tested, and the activity change, negative = inhibition was inactive: 14.7%.
CCN1/C(=C/C(C)=C/c2sc3ccccc3[n+]2CC)Sc2ccccc21 was tested, and the activity change, negative = inhibition was inconclusive: -20.3%.
CCN1/C(=C/c2ccc3cc(C)cc(C)c3[n+]2CC)Sc2cc(C)ccc21 was tested, and the activity change, negative = inhibition was inactive: -10.3%.
In the case of CN1CCN(C(c2ccccn2)c2cc(Cl)c3cccnc3c2O)CC1 (configuration not stated), the activity change, negative = inhibition is reported as inconclusive: -64.7%.
In the case of CC(C)CC(=O)NC(=S)Nc1ccc(S(=O)(=O)NC(C)(C)C)cc1, the activity change, negative = inhibition is reported as inconclusive: -28.4%.
For N=c1c[n+](N2CCOCC2)[n-]o1, the activity change, negative = inhibition was inconclusive: -29.6%.
CC(C)c1nc(SCC(=O)Nc2ccc(N3CCOCC3)cc2)c2ccccc2n1 was tested, and the activity change, negative = inhibition was inactive: -11.8%.
In the case of CCOC(=O)c1sc2nc(C)nc(SCC(=O)N(C)C3CCS(=O)(=O)C3)c2c1C (configuration not stated), the activity change, negative = inhibition is reported as inconclusive: -7.25%.
CCN1/C(=C/C=C/c2sc3ccccc3[n+]2CC)Sc2ccccc21 was tested, and the activity change, negative = inhibition was inconclusive: -13.4%.
With Cc1nn(C)cc1[C@@H]1C[C@H]2CN(Cc3cccc(Cl)c3)C(=O)[C@]23CCCN13 the activity change, negative = inhibition was inactive: 4.44%.
With CCc1cccc(NC(=O)C2CCCN(c3ncnc4c3nc3n4CCCCC3)C2)c1 (configuration not stated) the activity change, negative = inhibition was inactive: -7.35%.
In the case of COc1cc(C2NC(=O)C(C#N)=C(S)N2c2ccccc2)ccc1OC(C)C (configuration not stated), the activity change, negative = inhibition is reported as inactive: -17.4%.
For Cc1ccc(-n2c(O)c(C=NCc3ccccn3)c3ccccc3c2=O)cc1C, the activity change, negative = inhibition was inactive: 6.77%.
With Cc1ccc(C(=O)NCC(=O)OCC(=O)NC(C)C2CC3CCC2C3)cc1 (configuration not stated) the activity change, negative = inhibition was inconclusive: -5.8%.
In the case of CS(=O)(=O)c1ccc(N)c(SSc2cc(S(C)(=O)=O)ccc2N)c1, the activity change, negative = inhibition is reported as inconclusive: -47.1%.
